For the test, the target named is soluble cynomolgus (cyno) CD40 (Creative BioMart, cat #CD40-8824C) (cynomolgus) (UniProt G7PG38). Briefly: SPR (BIAcore T200).

By UniProt entry, the sequences of proteins in these tests, tags left out. Where a name states a change or a piece, a line headed by the entry shows the natural chain unless it says otherwise. Chains listed by the source or under a name are the forms on record and can include a tag or linker.
soluble cynomolgus (cyno) CD40 (Creative BioMart, cat #CD40-8824C) (G7PG38, form named): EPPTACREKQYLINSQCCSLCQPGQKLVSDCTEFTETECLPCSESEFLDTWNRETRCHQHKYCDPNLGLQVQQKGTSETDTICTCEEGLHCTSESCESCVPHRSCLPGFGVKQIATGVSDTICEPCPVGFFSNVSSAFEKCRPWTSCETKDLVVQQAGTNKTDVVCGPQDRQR

Results are given in words; binding and its absence hold for the method and conditions named. Some binding calls cover weakened binding; strength is not graded here.

B1: Humanized muAb8 #1 (antibody, V domains shown)
VH: EVQLVQSGAEVKKPGSSVKVSCKASGYTFTDYYINWVRQAPGQGLEWIGWIFPGSGSVYCNEQFKGRATLTVDRSTSTAYMELSSLRSEDTAVYFCASSLGKFAYWGQGTLVTVSS
VL: DIQMTQSPSSLSASVGDRVTITCKASQSVVTAVAWYQQKPGKSPKLLIYSASNRYTGVPSRFSGSGSGTDFTLTISSLQPEDFATYFCQQYSSYPYTFGGGTKVEIK
On to B1, for which the binding entry was “binds”.

The values are drawn from patent US20210277137A1.
